Measured values as given in patent publication US20040009502A1 (published 2004).
No constants are given. Whether binding was seen depends on the method and setting. Some entries that bind do so weakly or less than the wild type. Sequences can lack the tags named with a protein. Each block holds one molecule with its values, some of them ahead of it.

Chains of the proteins cited; added tags and fusions are not shown. Lines headed by an entry give the natural chain unless they say otherwise; changes in a name come on top.
UniProt P04386: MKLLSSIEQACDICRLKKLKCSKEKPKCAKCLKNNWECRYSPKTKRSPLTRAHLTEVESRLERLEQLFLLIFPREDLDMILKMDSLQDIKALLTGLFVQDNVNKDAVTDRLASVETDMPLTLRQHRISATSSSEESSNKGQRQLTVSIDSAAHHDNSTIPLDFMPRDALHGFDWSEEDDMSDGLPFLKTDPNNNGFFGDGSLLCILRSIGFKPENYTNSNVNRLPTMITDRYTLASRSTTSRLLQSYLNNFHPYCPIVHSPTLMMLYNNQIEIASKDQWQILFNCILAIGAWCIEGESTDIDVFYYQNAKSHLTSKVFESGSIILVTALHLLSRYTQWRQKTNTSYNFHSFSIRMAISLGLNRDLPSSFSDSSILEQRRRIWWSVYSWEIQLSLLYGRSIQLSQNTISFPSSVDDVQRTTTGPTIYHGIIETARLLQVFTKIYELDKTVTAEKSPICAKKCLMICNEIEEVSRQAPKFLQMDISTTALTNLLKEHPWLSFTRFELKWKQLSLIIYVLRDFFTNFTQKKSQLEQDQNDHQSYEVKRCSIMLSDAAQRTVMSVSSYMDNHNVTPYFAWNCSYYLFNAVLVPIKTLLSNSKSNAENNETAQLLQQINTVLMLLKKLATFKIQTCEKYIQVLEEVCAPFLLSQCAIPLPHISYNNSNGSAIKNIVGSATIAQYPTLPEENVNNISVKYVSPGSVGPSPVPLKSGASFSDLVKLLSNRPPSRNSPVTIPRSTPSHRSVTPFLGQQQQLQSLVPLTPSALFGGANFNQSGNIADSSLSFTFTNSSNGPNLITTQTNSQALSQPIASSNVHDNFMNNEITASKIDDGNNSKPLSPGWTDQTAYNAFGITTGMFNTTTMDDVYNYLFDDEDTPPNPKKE
UniProt Q7TSJ6: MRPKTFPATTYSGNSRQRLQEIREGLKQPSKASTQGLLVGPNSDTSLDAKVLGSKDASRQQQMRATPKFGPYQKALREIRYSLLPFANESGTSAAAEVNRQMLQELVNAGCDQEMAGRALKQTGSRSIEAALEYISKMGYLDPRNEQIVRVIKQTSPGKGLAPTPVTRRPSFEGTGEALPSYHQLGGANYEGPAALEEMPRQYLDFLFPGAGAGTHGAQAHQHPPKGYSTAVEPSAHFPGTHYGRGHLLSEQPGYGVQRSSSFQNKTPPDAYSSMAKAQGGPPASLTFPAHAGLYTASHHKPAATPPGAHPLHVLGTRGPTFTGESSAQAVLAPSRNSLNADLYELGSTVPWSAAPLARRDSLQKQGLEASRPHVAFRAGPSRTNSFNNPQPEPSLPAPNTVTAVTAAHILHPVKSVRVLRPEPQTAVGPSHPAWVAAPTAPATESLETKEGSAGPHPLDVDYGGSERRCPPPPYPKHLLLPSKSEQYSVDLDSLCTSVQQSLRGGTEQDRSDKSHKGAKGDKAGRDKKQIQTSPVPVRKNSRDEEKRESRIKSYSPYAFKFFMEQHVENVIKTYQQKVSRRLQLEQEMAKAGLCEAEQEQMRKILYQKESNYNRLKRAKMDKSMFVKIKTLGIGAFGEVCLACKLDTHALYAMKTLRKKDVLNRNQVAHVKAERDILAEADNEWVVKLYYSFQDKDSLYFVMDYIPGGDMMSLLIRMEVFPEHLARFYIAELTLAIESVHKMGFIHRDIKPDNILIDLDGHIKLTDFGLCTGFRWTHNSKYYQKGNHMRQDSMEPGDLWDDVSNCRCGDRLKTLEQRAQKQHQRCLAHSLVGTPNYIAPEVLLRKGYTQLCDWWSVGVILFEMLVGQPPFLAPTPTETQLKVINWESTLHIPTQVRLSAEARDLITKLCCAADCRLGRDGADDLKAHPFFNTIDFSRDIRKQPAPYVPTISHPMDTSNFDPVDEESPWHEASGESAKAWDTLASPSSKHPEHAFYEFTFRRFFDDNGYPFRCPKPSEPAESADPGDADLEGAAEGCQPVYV

How the values were obtained:
[1] = biological target: T1, mouse Replication Protein Binding Trans-Activator (mRBT1) fused to the GAL4 activation domain (pGADT7-mRBT1) (mouse) (UniProt Q9ERC3); experiment: yeast two-hybrid (growth on quadruple dropout plates)
T1 sequence (looked up): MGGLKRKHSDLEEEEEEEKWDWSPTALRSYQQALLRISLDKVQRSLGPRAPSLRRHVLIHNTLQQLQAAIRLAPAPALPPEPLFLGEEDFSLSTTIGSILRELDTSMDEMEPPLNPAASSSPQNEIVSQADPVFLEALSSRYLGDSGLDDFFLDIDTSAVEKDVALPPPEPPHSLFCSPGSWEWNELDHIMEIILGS

[2] = biological target: T2, mLATS2 fused to the GAL4 DNA binding domain (pGBKT7-mLATS2) (mouse) (UniProt P04386+Q7TSJ6); experiment: as above
[3] = biological target: T2, mLATS2 fused to the GAL4 DNA binding domain (pGBKT7-mLATS2) (mouse); experiment: yeast two-hybrid

binding [1]: binds
Molecule: mLATS2 fused to the GAL4 DNA binding domain (pGBKT7-mLATS2) (from UniProt P04386 1-147; Q7TSJ6 1-1042) (enzyme)

B1: mRBT1N121 fused to the GAL4 activation domain (pGADT7-mRBT1N121) (other, mouse, UniProt Q9ERC3 1-121, looked up, not shown: large carriers)
chain: MGGLKRKHSDLEEEEEEEKWDWSPTALRSYQQALLRISLDKVQRSLGPRAPSLRRHVLIHNTLQQLQAAIRLAPAPALPPEPLFLGEEDFSLSTTIGSILRELDTSMDEMEPPLNPAASSS
notes: Made by removing the Xho I fragment from pGADT7-mRBT1
binding [2]: binds

B2: mouse Replication Protein Binding Trans-Activator (mRBT1) fused to the GAL4 activation domain (pGADT7-mRBT1) (other, UniProt Q9ERC3 1-197, looked up, not shown: large carriers)
chain: MGGLKRKHSDLEEEEEEEKWDWSPTALRSYQQALLRISLDKVQRSLGPRAPSLRRHVLIHNTLQQLQAAIRLAPAPALPPEPLFLGEEDFSLSTTIGSILRELDTSMDEMEPPLNPAASSSPQNEIVSQADPVFLEALSSRYLGDSGLDDFFLDIDTSAVEKDVALPPPEPPHSLFCSPGSWEWNELDHIMEIILGS
binding [3]: binds
